Measurements: patent publication US20190290692A1 (MINERVA BIOTECHNOLOGIES, published 2019)
These are yes or no findings as the source states them, for the method shown. Some results given as binding are weak or reduced against the parent protein; the word gives no strength.

Protein sequences, listed by entry. Tags and fused reporters are not part of them. Lines headed by an entry give the natural chain unless they say otherwise; changes in a name come on top.
UniProt P15941: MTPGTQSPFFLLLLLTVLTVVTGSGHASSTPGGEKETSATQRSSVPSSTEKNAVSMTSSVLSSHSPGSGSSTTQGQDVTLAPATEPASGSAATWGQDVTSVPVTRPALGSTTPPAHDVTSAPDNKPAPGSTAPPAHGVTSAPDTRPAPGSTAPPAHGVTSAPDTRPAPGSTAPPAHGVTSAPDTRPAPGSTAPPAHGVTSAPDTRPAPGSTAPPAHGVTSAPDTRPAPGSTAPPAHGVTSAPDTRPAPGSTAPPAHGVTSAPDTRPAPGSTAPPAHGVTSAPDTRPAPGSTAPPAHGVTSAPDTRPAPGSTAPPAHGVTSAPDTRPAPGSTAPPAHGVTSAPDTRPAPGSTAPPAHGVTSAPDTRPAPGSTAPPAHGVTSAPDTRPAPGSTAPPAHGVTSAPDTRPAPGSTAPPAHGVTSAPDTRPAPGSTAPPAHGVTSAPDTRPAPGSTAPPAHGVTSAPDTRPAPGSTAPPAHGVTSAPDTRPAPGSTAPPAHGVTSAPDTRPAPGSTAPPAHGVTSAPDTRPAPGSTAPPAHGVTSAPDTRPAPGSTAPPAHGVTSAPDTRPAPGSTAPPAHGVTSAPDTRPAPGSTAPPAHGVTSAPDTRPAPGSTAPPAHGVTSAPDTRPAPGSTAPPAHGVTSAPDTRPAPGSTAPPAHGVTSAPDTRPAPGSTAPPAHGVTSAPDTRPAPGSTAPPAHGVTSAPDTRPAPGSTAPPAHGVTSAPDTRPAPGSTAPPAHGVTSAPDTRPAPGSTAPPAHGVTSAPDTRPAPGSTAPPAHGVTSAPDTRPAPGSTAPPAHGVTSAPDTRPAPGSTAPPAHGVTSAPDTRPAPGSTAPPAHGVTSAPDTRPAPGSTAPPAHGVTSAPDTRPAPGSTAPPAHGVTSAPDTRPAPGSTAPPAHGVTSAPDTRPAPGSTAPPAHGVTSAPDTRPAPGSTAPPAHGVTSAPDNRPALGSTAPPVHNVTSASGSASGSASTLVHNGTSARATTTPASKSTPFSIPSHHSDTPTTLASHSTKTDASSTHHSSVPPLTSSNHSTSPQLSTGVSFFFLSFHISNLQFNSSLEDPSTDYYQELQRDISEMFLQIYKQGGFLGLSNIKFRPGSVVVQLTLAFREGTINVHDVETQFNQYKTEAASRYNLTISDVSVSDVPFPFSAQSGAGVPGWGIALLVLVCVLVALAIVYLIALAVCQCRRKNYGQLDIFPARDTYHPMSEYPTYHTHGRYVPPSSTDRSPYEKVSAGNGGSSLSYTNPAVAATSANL

Legend:
[1] = target: MUC1* as it appears on cancer cells and cancerous tissues (Homo sapiens (Human)) (UniProt P15941); assay: immunofluorescence on T47D breast cancer cells (FIG. 24)
[2] = target: MUC1* as it appears on cancer cells and cancerous tissues (Homo sapiens (Human)) (UniProt P15941); assay: flow cytometry (FIGS. 4A-4C)
[3] = target: MUC1* as it appears on cancer cells and cancerous tissues (Homo sapiens (Human)) (UniProt P15941); assay: immunofluorescence on T47D cells (FIG. 24)
[4] = target: MUC1* as it appears on cancer cells and cancerous tissues (Homo sapiens (Human)) (UniProt P15941); assay: flow cytometry on ZR-75-1 (1500) breast cancer cells, anti-Penta-His Alexa 488
[5] = target: MUC1* as it appears on cancer cells and cancerous tissues (Homo sapiens (Human)) (UniProt P15941); assay: selection screens
[6] = target: MUC1* as it appears on cancer cells and cancerous tissues (Homo sapiens (Human)) (UniProt P15941); assay: flow cytometry on ZR-75-1 (1500) breast cancer cells
[7] = target: MUC1* expressed on transfected cells (MUC1*45) (Homo sapiens (Human)) (UniProt P15941); assay: flow cytometry, HCT-116 transfected with MUC1* clone #10 against empty vector clone #8
[8] = target: MUC1* as it appears on cancer cells and cancerous tissues (Homo sapiens (Human)) (UniProt P15941); assay: tissue staining
[9] = target: MUC1* as it appears on cancer cells and cancerous tissues (Homo sapiens (Human)) (UniProt P15941); assay: tissue and cell staining
[10] = target: MUC1* as it appears on cancer cells and cancerous tissues (Homo sapiens (Human)) (UniProt P15941); assay: flow cytometry (FIGS. 4D-4F)
[11] = target: MUC1* expressed on transfected cells (MUC1*45) (Homo sapiens (Human)) (UniProt P15941); assay: flow cytometry (FIGS. 4D-4F)
[12] = target: MUC1* expressed on transfected cells (MUC1*45) (Homo sapiens (Human)) (UniProt P15941); assay: CAR T co-culture with HCT-FLR (HCT-116 transfected with MUC1*45), microscopy (FIG. 75C)
[13] = target: MUC1* as it appears on cancer cells and cancerous tissues (Homo sapiens (Human)) (UniProt P15941); assay: CAR T co-culture with T47D cells with or without MMP2, MMP9 or ADAM17 conditioned media, microscopy (FIG. 76)
[14] = target: MUC1* as it appears on cancer cells and cancerous tissues (Homo sapiens (Human)) (UniProt P15941); assay: immunohistochemistry of human cancer tissue arrays (FIGS. 69-74; arrays of FIGS. 70-74 were stained with huMNC2scFv)
[15] = target: MUC1* as it appears on cancer cells and cancerous tissues (Homo sapiens (Human)) (UniProt P15941); assay: flow cytometry
[16] = target: MUC1* expressed on transfected cells (MUC1*45) (Homo sapiens (Human)) (UniProt P15941); assay: flow cytometry
[17] = target: MUC1* as it appears on cancer cells and cancerous tissues (Homo sapiens (Human)) (UniProt P15941); assay: immunohistochemistry of breast cancer tissue arrays, Allred scoring (FIGS. 43, 44)
[18] = target: MUC1* expressed on transfected cells (MUC1*45) (Homo sapiens (Human)) (UniProt P15941); assay: cell binding assay, CAR-transduced HEK293 cells (GFP) with CMTMR-stained K562-MUC1* cells, after wash steps (FIG. 108)

Measured: binding

B1: humanized MN-C2 scFv (scFv, V domains shown, not shown: small tags and cut ends)
VH: EVQLVESGGGLVKPGGSLRLSCAASGFTFSGYAMSWVRQAPGKGLEWVSTISSGGTYIYYPDSVKGRFTISRDNAKNSLYLQMNSLRAEDTAVYYCARLGGDNYYEYFDVWGKGTTVTVSS
VL: DIVLTQSPASLAVSPGQRATITCRASKSVSTSGYSYMHWYQQKPGQPPKLLIYLASNLESGVPARFSGSGSGTDFTLTINPVEANDTANYYCQHSRELPFTFGGGTKVEIKR
notes: also called huMN-C2 scFv; hMN-C2 scFv
binds: [1] | [2] | [3] | [4]

B2: mouse monoclonal antibody MN-E6 (antibody, V domains shown)
VH: EVKVVESGGDLVKPGGSLKLSCVVSGFTFSRYGMSWVRQTPGKRLEWVATISGGGTYIYYPDSVKGRFTISRDNAKNTLYLQMSSLKSEDTAMYHCTRDNYGRNYDYGMDYWGQGTSVTVSS
VL: QIVLTQSPAIMSASPGEEVTLTCSATSSVSYIHWFQQRPGTSPKLWIYSTSNLASGVPVRFSGSGYGTSYSLTISRMEAEDAATYYCQQRSSSPFTFGSGTKLEIK
notes: also called Min-E6; parent MN-E6 antibody
binds: [5] | [6] | [7] | [8] | [9] | [10] | [11]

B3: humanized MN-E6 scFv (scFv, V domains shown, not shown: small tags and cut ends)
VH: EVQLVESGGGLVKPGGSLRLSCAASGFTFSRYGMSWVRQAPGKRLEWVSTISGGGTYIYYPDSVKGRFTISRDNAKNTLYLQMNSLRAEDTAVYYCTRDNYGRNYDYGMDYWGQGTLVTVSS
VL: EIVLTQSPATLSLSPGERATLTCSATSSVSYIHWYQQRPGQSPRLLIYSTSNLASGIPARFSGSGSGSDYTLTISSLEPEDFAVYYCQQRSSSPFTFGSGTKVEIK
notes: also called hu MN-E6 scFv
binds: [1] | [3]

B4: huMNC2-CAR50 (CAR-T C2 CD4/CD4/4-1BB/CD3z #50) (protein)
chain: EVQLVESGGGLVKPGGSLRLSCAASGFTFSGYAMSWVRQAPGKGLEWVSTISSGGTYIYYPDSVKGRFTISRDNAKNSLYLQMNSLRAEDTAVYYCARLGGDNYYEYFDVWGKGTTVTVSSGGGGSGGGGSGGGGSDIVLTQSPASLAVSPGQRATITCRASKSVSTSGYSYMHWYQQKPGQPPKLLIYLASNLESGVPARFSGSGSGTDFTLTINPVEANDTANYYCQHSRELPFTFGGGTKVEIKRTSGQVLLESNIKVLPTWSTPVQPMALIVLGGVAGLLLFIGLGIFFKRGRKKLLYIFKQPFMRPVQTTQEEDGCSCRFPEEEEGGCELRVKFSRSADAPAYKQGQNQLYNELNLGRREEYDVLDKRRGRDPEMGGKPRRKNPQEGLYNELQKDKMAEAYSEIGMKGERRRGKGHDGLYQGLSTATKDTYDALHMQALPPR
binds: [12] | [13]

B5: mouse monoclonal antibody MN-C2 (antibody, V domains shown)
VH: EVQLEESGGGLVKPGGSLKLSCAASGFTFSGYAMSWVRQTPEKRLEWVATISSGGTYIYYPDSVKGRFTISRDNAKNTLYLQMSSLRSEDTAMYYCARLGGDNYYEYFDVWGAGTTVTVSS
VL: DIVITQSTASLGVSLGQRATISCRASKSVSTSGYSYMHWYQQRPGQPPKLLIYLASNLESGVPARFSGSGSGTDFTLNIHPVEEEDAATYYCQHSRELPFTFGGGTKLEIKR
notes: also called Min-C2
binds: [14] | [5] | [15] | [16] | [17]

B6: CAR57: huC2-IgD-CD8-41BB-3z (protein)
chain: EVQLVESGGGLVKPGGSLRLSCAASGFTFSGYAMSWVRQAPGKGLEWVSTISSGGTYIYYPDSVKGRFTISRDNAKNSLYLQMNSLRAEDTAVYYCARLGGDNYYEYFDVWGKGTTVTVSSGGGGSGGGGSGGGGSDIVLTQSPASLAVSPGQRATITCRASKSVSTSGYSYMHWYQQKPGQPPKLLIYLASNLESGVPARFSGSGSGTDFTLTINPVEANDTANYYCQHSRELPFTFGGGTKVEIKRTESPKAQASSVPTAQPQAEGSLAKATTAPATTRNTGRGGEEKKKEKEKEEQEERETKTPIYIWAPLAGTCGVLLLSLVITLYCKRGRKKLLYIFKQPFMRPVQTTQEEDGCSCRFPEEEEGGCELRVKFSRSADAPAYKQGQNQLYNELNLGRREEYDVLDKRRGRDPEMGGKPRRKNPQEGLYNELQKDKMAEAYSEIGMKGERRRGKGHDGLYQGLSTATKDTYDALHMQALPPR
binds: [18]
